Experimental data taken from publication PMC12214610.
No constants are given. Whether binding was seen depends on the method and setting. Binding seen in cells or lysates may run through a third protein. Some results given as binding are weak or reduced against the parent protein; the word gives no strength.

By UniProt entry, the sequences of proteins in these tests, tags left out.
UniProt P16761: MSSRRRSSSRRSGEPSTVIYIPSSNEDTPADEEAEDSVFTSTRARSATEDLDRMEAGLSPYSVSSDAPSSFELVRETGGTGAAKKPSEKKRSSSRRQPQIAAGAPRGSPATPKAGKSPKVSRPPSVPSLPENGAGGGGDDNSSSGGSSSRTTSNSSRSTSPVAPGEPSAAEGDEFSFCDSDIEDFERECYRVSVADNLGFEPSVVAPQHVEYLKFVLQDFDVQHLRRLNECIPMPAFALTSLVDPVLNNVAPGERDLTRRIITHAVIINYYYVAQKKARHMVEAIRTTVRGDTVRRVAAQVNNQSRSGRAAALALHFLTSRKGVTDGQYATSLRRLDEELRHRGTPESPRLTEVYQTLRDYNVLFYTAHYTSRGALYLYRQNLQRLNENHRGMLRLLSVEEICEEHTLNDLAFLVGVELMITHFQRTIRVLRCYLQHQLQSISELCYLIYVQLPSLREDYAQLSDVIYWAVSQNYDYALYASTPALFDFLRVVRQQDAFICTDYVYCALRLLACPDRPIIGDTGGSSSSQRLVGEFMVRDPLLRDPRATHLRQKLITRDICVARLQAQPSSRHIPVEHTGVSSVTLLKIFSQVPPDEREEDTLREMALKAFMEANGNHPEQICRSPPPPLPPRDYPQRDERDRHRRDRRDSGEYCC
UniProt O00571: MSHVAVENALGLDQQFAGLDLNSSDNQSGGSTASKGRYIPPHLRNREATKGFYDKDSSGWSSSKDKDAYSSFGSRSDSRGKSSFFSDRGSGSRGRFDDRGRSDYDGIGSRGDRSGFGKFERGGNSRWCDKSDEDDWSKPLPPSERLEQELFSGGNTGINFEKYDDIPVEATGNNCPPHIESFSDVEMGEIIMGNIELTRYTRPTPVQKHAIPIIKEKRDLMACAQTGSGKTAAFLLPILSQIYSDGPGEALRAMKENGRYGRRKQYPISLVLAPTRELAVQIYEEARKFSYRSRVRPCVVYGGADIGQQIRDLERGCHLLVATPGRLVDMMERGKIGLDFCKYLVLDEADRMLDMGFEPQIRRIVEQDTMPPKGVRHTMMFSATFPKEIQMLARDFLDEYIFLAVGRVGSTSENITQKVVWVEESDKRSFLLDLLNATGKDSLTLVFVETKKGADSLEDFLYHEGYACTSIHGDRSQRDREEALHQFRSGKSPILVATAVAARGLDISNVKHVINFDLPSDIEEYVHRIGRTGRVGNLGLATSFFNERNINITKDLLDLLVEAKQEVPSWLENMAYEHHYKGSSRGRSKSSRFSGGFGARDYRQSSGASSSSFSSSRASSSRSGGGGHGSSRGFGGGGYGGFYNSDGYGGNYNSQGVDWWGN

Biological target: UL25 (human cytomegalovirus) (UniProt P16761)

DDX3X (from UniProt O00571 1-662)
binding: binds
